The values that follow come from the supplement of paper PMC3682954.

In this assay the test system is RAW 264.7. Briefly: HMGB1-induced TNF-alpha production relative to HMGB1-stimulated control; higher = more TNF-alpha secretion (less inhibition). As to conditions: stimulus: HMGB1 5 ug/ml, 18 h.
The mark [1] stands for this setting: compound concentration: 1 ug/ml.

Structures can show the parent of a compound that is named as a salt. ± gives the standard deviation of the averaged measurements. The list shows a part of the results. Most values come without repeats; read them as rough.

For the compound `S=C(Nc1ccccc1)Nc1nccs1` [1-Phenyl-3-(2-thiazolyl)-2-thiourea], the “HMGB1-induced TNF-alpha production” value (compound concentration: 3 uM) turned out to be 110%. For `O=C1O[C@H](CO)[C@@H](O)[C@H](O)[C@H]1O`, the “HMGB1-induced TNF-alpha production” value (compound concentration: 3 uM) was 87.6%. Regarding `CCC(=O)OCC(=O)[C@@]1(OC(=O)CC)[C@H](C)CC2C3C([C@@H](O)C[C@@]21C)[C@@]1(C)C=CC(=O)C=C1C[C@H]3Cl` (stereo not given in full), the “HMGB1-induced TNF-alpha production” value (compound concentration: 3 uM) stood at 42.1%. Same read-out and setting: the figure for `CSc1ccc(C(=O)c2[nH]c(=O)[nH]c2C)cc1` [Enoximone] is 99.8%; for `CC(C)(S)[C@@H](N)C(=O)O` [Penicillamine] it is 115%; for `CC(C)(S)[C@@H](N)C(=O)O` it is 97.3%. The same measure, in the same setting: the result for `Cc1cc(C(=O)NNCc2ccccc2)no1` [Isocarboxazid] reads 94.5%; that for `CO[C@H]1C[C@H](O[C@H]2[C@H](C)[C@@H](O[C@@H]3O[C@H](C)C[C@H](N(C)C)[C@H]3OC(C)=O)[C@@H](C)C[C@@]3(CO3)C(=O)[C@H](C)[C@@H](OC(C)=O)[C@@H](C)[C@@H](C)OC(=O)[C@@H]2C)O[C@@H](C)[C@@H]1OC(C)=O` [Troleandomycin], 76.6 ± 13%. Same read-out and setting: the result for `COc1ccc(-c2ccc(=N)n(CCCC(=O)O)n2)cc1` [Gabazine] reads 61.8%. Consider `COc1ccc(-c2ccc(=N)n(CCCC(=O)O)n2)cc1`, for which the “HMGB1-induced TNF-alpha production” value (compound concentration: 3 uM) was 104%. For `CCCCCCCCCCCCCCCC(=O)NCCO` [Palmitoylethanolamide], the “HMGB1-induced TNF-alpha production” value (compound concentration: 3 uM) was found to be 107%. Still for that read-out and setting: the figure for `CN1CCN(C2=Nc3cc(Cl)ccc3Nc3ccccc32)CC1` [Clozapine] is 72.6 ± 20%; for `CN1CCN(C2=Nc3cc(Cl)ccc3Nc3ccccc32)CC1` it is 100%.

As to `C=CC[C@H](N)C(=O)O` [L-allylglycine], the “HMGB1-induced TNF-alpha production” value (compound concentration: 3 uM) was 95%. In the case of `Brc1ccc([C@H]2CN3CCSC3=N2)cc1` [S(-)-p-Bromotetramisole oxalate], the “HMGB1-induced TNF-alpha production” value (compound concentration: 3 uM) was 75.9%. As for `C[C@@H]1NC(=O)NC1=O` [Methylhydantoin-5-(L)], the “HMGB1-induced TNF-alpha production” value (compound concentration: 3 uM) worked out at 94.9%. Turning to `COc1ccc(-c2coc3cc(OC4OC(CO)C(O)C(O)C4O)cc(O)c3c2=O)cc1` (stereo not given) [Sissotrine], the “HMGB1-induced TNF-alpha production” value under setting [1] worked out at 71.2%.

On to `O=c1cc(-c2cccc(O)c2)oc2cccc(O)c12`, for which, under setting [1], the “HMGB1-induced TNF-alpha production” value was 43.9%. For the compound `O=C(O)c1ccccc1Nc1ccccc1` [N-Phenylanthranilic acid], under “compound concentration: 3 uM”, the “HMGB1-induced TNF-alpha production” value worked out at 80.1%.

Consider `N=C1C=CC(=C(c2ccc(N)cc2)c2ccc(N)cc2)C=C1`, for which the “HMGB1-induced TNF-alpha production” value (compound concentration: 3 uM) stood at 195%.

On to `O=c1c(O)c(-c2ccc(O)cc2)oc2ccc(O)cc12`, for which the “HMGB1-induced TNF-alpha production” value under setting [1] came to 67.8%. Consider `Cc1ccc(-c2ncc(Cl)cc2-c2ccc(S(C)(=O)=O)cc2)cn1` [Etoricoxib], for which, where the note is “compound concentration: 3 uM”, the “HMGB1-induced TNF-alpha production” value came out at 99.8 ± 2.1%. As to `CCCc1c(OCCCCc2nnn[nH]2)ccc(C(C)=O)c1O`, the “HMGB1-induced TNF-alpha production” value (compound concentration: 3 uM) was 103%.

For `CC1CCc2c(N3CCC(O)CC3)c(F)cc3c(=O)c(C(=O)O)cn1c23` (stereo not given) [Nadifloxacin], the “HMGB1-induced TNF-alpha production” value (compound concentration: 3 uM) stood at 97.9 ± 22%. Turning to `Clc1ccc(COC(Cn2ccnc2)c2ccc(Cl)cc2Cl)c(Cl)c1` (stereo not given) [Miconazole], under “compound concentration: 3 uM”, the “HMGB1-induced TNF-alpha production” value amounted to 54.9 ± 2%. As for `Clc1ccc(COC(Cn2ccnc2)c2ccc(Cl)cc2Cl)c(Cl)c1` (stereo not given), the “HMGB1-induced TNF-alpha production” value (compound concentration: 3 uM) was determined as 75.5%.

As for `NCC=CC(=O)O` (stereo in doubt) [cis-4-Aminocrotonic acid], the “HMGB1-induced TNF-alpha production” value (compound concentration: 3 uM) is 91%. On the same count and under the same terms, the figure for `Cc1cc(=O)n(-c2ccccc2)n1C` is 73.1%; for `Cc1cc(=O)n(-c2ccccc2)n1C` [Antipyrine] it is 72%.

`CC(=O)[C@H]1CC[C@H]2[C@@H]3CC=C4C[C@@H](OS(=O)(=O)O)CC[C@]4(C)[C@H]3CC[C@]12C` [Pregnenolone sulfate sodium]: under “compound concentration: 3 uM”, the “HMGB1-induced TNF-alpha production” value turned out to be 103%.

For the compound `NC12CC3CC(CC(C3)C1)C2` [Amantadine hydrochloride], the “HMGB1-induced TNF-alpha production” value (compound concentration: 3 uM) amounted to 84.7%. The same measure, in the same setting: the result for `NC12CC3CC(CC(C3)C1)C2` reads 82.6%; that for `NC12CC3CC(CC(C3)C1)C2` [Adamantamine fumarate], 85.3%. Take `N#C/C(=C\c1ccc(O)c(O)c1)C(=O)c1ccc(O)c(O)c1` [Tyrphostin AG 538]: the “HMGB1-induced TNF-alpha production” value (compound concentration: 3 uM) is 88.9%. On the same count and under the same terms, the figure for `CO[C@H]1O[C@@H]2O[C@@]3(C)CC[C@H]4[C@H](C)CC[C@@H]([C@H]1C)[C@@]24OO3` is 104%. As for `O=C(O)c1cc(O)c2c(c1)[C@@H]([C@H]1c3cc(C(=O)O)cc(O)c3C(=O)c3c(O[C@@H]4O[C@H](CO)[C@@H](O)[C@H](O)[C@H]4O)cccc31)c1cccc(O[C@@H]3O[C@H](CO)[C@@H](O)[C@H](O)[C@H]3O)c1C2=O` [Sennoside B], the “HMGB1-induced TNF-alpha production” value under setting [1] was 63.5%. Regarding `CC1(C2CCCC2)Cc2cc(OCC(=O)O)c(Cl)c(Cl)c2C1=O` (stereo not given), the “HMGB1-induced TNF-alpha production” value (compound concentration: 3 uM) was 107%.

Regarding `CCOC(=O)[C@]12CC1/C(=N\O)c1ccccc1O2` (stereo not given in full), for the setting “compound concentration: 3 uM”, the “HMGB1-induced TNF-alpha production” value stood at 89.8%. `O=c1cc(-c2ccc(O)c(O)c2)oc2cc(O)cc(O)c12` [Luteolin]: the “HMGB1-induced TNF-alpha production” value (compound concentration: 3 uM) came out at 125%. Turning to `CC(C)(C(=O)c1cccnc1)c1cccnc1` [Metyrapone], the “HMGB1-induced TNF-alpha production” value (compound concentration: 3 uM) turned out to be 99.8%.

As to `NCCCCNCCCN` [Spermidine trihydrochloride], the “HMGB1-induced TNF-alpha production” value (compound concentration: 3 uM) turned out to be 102%. Still for that read-out and setting: the result for `N[C@H](CO)C(=O)O` [D-Serine] reads 117%; that for `NC(Cc1cccc(-c2ccccc2CP(=O)(O)O)c1)C(=O)O` (stereo not drawn) [Phenylbenzene-omega-phosphono-alpha-amino acid], 108%.

`O=S(=O)(c1cccc2cnccc12)N1CCNCC1`: under “compound concentration: 3 uM”, the “HMGB1-induced TNF-alpha production” value is 88.5%. `CC(=O)N(O)CCCCCNC(=O)CCC(=O)N(O)CCCCCNC(=O)CCC(=O)N(O)CCCCCN` [Deferoxamine mesylate]: where the note is “compound concentration: 3 uM”, the “HMGB1-induced TNF-alpha production” value was found to be 106%.

Turning to `CC(=O)N(O)CCCCCNC(=O)CCC(=O)N(O)CCCCCNC(=O)CCC(=O)N(O)CCCCCN`, for the setting “compound concentration: 3 uM”, the “HMGB1-induced TNF-alpha production” value stood at 78.3%. Turning to `O=C1Cc2cc(CCN3CCN(c4nsc5ccccc45)CC3)c(Cl)cc2N1` [Ziprasidone  Hydrochloride], the “HMGB1-induced TNF-alpha production” value (compound concentration: 3 uM) turned out to be 89.1%. On the same count and under the same terms, the figure for `O=C1Cc2cc(CCN3CCN(c4nsc5ccccc45)CC3)c(Cl)cc2N1` [Ziprasidone hydrochloride monohydrate] is 91.9%; for `CC(C)/N=c1\cc2n(-c3ccc(Cl)cc3)c3ccccc3nc-2cc1Nc1ccc(Cl)cc1` it is 92 ± 20%; for `CC(C)/N=c1\cc2n(-c3ccc(Cl)cc3)c3ccccc3nc-2cc1Nc1ccc(Cl)cc1` [Clofazimine] it is 65.8%. For the compound `CCN[C@H]1C[C@H](C)S(=O)(=O)c2sc(S(N)(=O)=O)cc21` [Dorzolamide hydrochloride], where the note is “compound concentration: 3 uM”, the “HMGB1-induced TNF-alpha production” value was found to be 124%. On the same count and under the same terms, the figure for `CCN[C@H]1C[C@H](C)S(=O)(=O)c2sc(S(N)(=O)=O)cc21` [Dorzolamide] is 123%; for `CO[C@@]1(NC(=O)CSCC#N)C(=O)N2C(C(=O)O)=C(CSc3nnnn3C)CS[C@@H]21` it is 81.3%. On the same count and under the same terms, the result for `CO[C@@]1(NC(=O)CSCC#N)C(=O)N2C(C(=O)O)=C(CSc3nnnn3C)CS[C@@H]21` [Cefmetazole sodium salt] reads 105%; that for `CO[C@@]1(NC(=O)CSCC#N)C(=O)N2C(C(=O)O)=C(CSc3nnnn3C)CS[C@@H]21` [Cefmetazole sodium], 87.3%.
